Data from the supplement of paper PMC12889115.
Some of the results follow. These are raw signals, not scaled to a control.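 First-pass screen: polymyxin B was added at a level that permeabilizes the Salmonella outer membrane while sparing the inner membrane. DMSO wells, with and without polymyxin B, defined maximum growth. Because plates differed from one another, each plate's data were ranked separately and the compounds with the lowest OD600 were carried forward as hits.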

System: Salmonella enterica serovar Typhimurium SL1344
Assay: bacterial growth OD600 after 18 h with compound and polymyxin B; higher = more bacterial growth (less inhibition)
Conditions: 50 µM, Mueller-Hinton broth

SMILES	bacterial growth OD600 (polymyxin B 0.75 µg/mL)	bacterial growth OD600 (polymyxin B 1 µg/mL)
O=C(c1cccs1)N1CCC(C2CCN(Cc3cccnc3)CC2)C1 (stereo unspecified)	0.83	
CCN(CC1CCCO1)C(=O)c1csc2nc(-c3ccccc3F)cn12 (stereo unspecified)		0.832
COc1cc(Cl)ccc1OCc1cc(C(=O)N(C)C2CC(C)(C)NC(C)(C)C2)no1		0.88
CCCC1(C2CCN(C(=O)CSc3ccccc3)CC2)NC(=O)N(CCc2ccccn2)C1=O (stereo unspecified)	0.803	
CC1CCN(Cc2nnnn2CC(=O)NCCc2cn3ccccc3n2)CC1	0.849	
CC(=O)N[C@@H](CC(C)C)C(=O)N1CCCC(c2[nH]ncc2-c2ccc(F)c(F)c2)C1 (stereo partly specified)	1.01	
Cc1oc(-c2ccc(NC(=O)Cc3ccccc3)cc2)nc1CNC(=O)Cn1cnc2ccccc21	0.781	
c1ccc(Oc2ncccc2CNCc2ccc3c(c2)OCCO3)cc1	0.799	
O=C(NCc1cccc(C(F)(F)F)c1)C1CC12CCN(Cc1ccoc1)CC2 (stereo unspecified)	0.876	
CC1CN(CC(=O)N2CCC(c3ccncc3)CC2)Cc2cc(Cl)ccc2O1 (stereo unspecified)	0.756	
Cc1c(CNC2CCCN(CC3CCCCC3)C2)c(=O)n(-c2ccccc2)n1C (stereo unspecified)		0.452
CCOc1cc(CN2CCCC(c3nc(-c4ccncc4)ncc3-c3ccccc3)C2)ccc1OC (stereo unspecified)	0.798	
Cc1nc[nH]c1CN1CCCC1C(=O)Nc1cccc(-c2ccc(F)cc2)c1 (stereo unspecified)	0.804	
CN(CCOc1ccccc1)C(=O)c1ccc(OC2CCN(C(=O)C3CC3)CC2)cc1		0.896
Cc1nc(N2CCC(NCc3cccc(F)c3F)CC2)nc2cc(S(C)(=O)=O)ccc12	0.812	
Cn1cc(CN2CCC(n3nccc3NC(=O)Nc3cccc(F)c3)CC2)cn1	0.771	

An excerpt of these results, bar-delimited.
SMILES | bacterial growth OD600 (polymyxin B 0.75 µg/mL) | bacterial growth OD600 (polymyxin B 1 µg/mL)
CC(=O)N[C@@H](CC(C)C)C(=O)N1CCCC(c2[nH]ncc2-c2ccc(F)c(F)c2)C1 (stereo partly specified) | 1.01 | 
Cc1oc(-c2ccc(NC(=O)Cc3ccccc3)cc2)nc1CNC(=O)Cn1cnc2ccccc21 | 0.781 | 
c1ccc(Oc2ncccc2CNCc2ccc3c(c2)OCCO3)cc1 | 0.799 | 
O=C(NCc1cccc(C(F)(F)F)c1)C1CC12CCN(Cc1ccoc1)CC2 (stereo unspecified) | 0.876 | 
CC1CN(CC(=O)N2CCC(c3ccncc3)CC2)Cc2cc(Cl)ccc2O1 (stereo unspecified) | 0.756 | 
Cc1c(CNC2CCCN(CC3CCCCC3)C2)c(=O)n(-c2ccccc2)n1C (stereo unspecified) |  | 0.452
CCOc1cc(CN2CCCC(c3nc(-c4ccncc4)ncc3-c3ccccc3)C2)ccc1OC (stereo unspecified) | 0.798 | 
Cc1nc[nH]c1CN1CCCC1C(=O)Nc1cccc(-c2ccc(F)cc2)c1 (stereo unspecified) | 0.804 | 

(further entries)

SMILES	bacterial growth OD600 (polymyxin B 0.75 µg/mL)	bacterial growth OD600 (polymyxin B 1 µg/mL)
CCOC(=O)CN(C)C(=O)C1CCC(=O)N(C2CCCCCC2)C1 (stereo unspecified)		0.861
CSc1ccccc1C(=O)NCc1c(C)ncc2c1CCN(C(=O)[C@H](CC(C)C)NC(C)=O)C2	0.997	
O=C(CCCn1cncn1)N1CCOc2ccc(C(O)C(c3ccccc3)c3ccccc3)cc2C1 (stereo unspecified)	0.869	
CCOC(=O)C1(Cc2ccccc2C)CCCN(C(=O)Nc2ccc(OC)cc2)C1 (stereo unspecified)		0.815
c1ccc(-n2ncc3c2CCCC3NCc2cccc3ncccc23)nc1 (stereo unspecified)	0.802	
Cc1ccc(CNC(=O)c2cc(COc3cccc(F)c3)[nH]n2)o1	0.855	
COCCCN1C(=O)CC(CC(=O)N2CCN(c3ccccc3C)CC2)(c2ccccc2OC)C1=O (stereo unspecified)	0.011	
O=C(Nc1cccc(-n2cccn2)c1)C1CCCN(Cc2ccc3c(c2)OCCO3)C1 (stereo unspecified)		0.747
O=C(c1cccs1)N1CCc2[nH]nc(-c3cccc(F)c3)c2C1	0	
CSCCC(=O)NC1CC(=O)N(Cc2ccccc2C(F)(F)F)C1 (stereo unspecified)		0.941
COc1ccc(C(=O)Nc2ccnn2C2CCN(C(=O)c3cnc(C)cn3)CC2)cc1		1.11
Cc1cc(-c2cc(F)cc3c2OC(CNC(=O)C[C@@H]2C[C@@H](C)NC(=S)N2)C3)ccc1F (stereo partly specified)	0.83	
COc1cc(OC)cc([C@@H]2C[C@H]3CN(Cc4cccc(Cl)c4)C(=O)[C@]34CCCN24)c1		0.008
COc1ccc(OCC2CCCN(C(=O)c3cn(C4CCCCC4)nn3)C2)cc1 (stereo unspecified)		0.248
CN(C)C1CCN(C(=O)c2csc3nc(-c4cccc(C(F)(F)F)c4)cn23)C1 (stereo unspecified)		1.17
